Test results as given in paper PMC4686654.
No constants are given. Whether binding was seen depends on the method and setting. Tags and fused reporters may be left off the sequences shown.

Target: RhoA, yeast two-hybrid fusion, P61586
Experiment: two-hybrid; LexA and Gal4 activation domain fusions in yCK580 yeast; beta-galactosidase liquid assay (X-Gal)
Settings: remark: other sources report otherwise

B1: full-length ROCK1, yeast two-hybrid fusion, Q13464 1-1354 (enzyme)
chain: MSTGDSFETRFEKMDNLLRDPKSEVNSDCLLDGLDALVYDLDFPALRKNKNIDNFLSRYKDTINKIRDLRMKAEDYEVVKVIGRGAFGEVQLVRHKSTRKVYAMKLLSKFEMIKRSDSAFFWEERDIMAFANSPWVVQLFYAFQDDRYLYMVMEYMPGGDLVNLMSNYDVPEKWARFYTAEVVLALDAIHSMGFIHRDVKPDNMLLDKSGHLKLADFGTCMKMNKEGMVRCDTAVGTPDYISPEVLKSQGGDGYYGRECDWWSVGVFLYEMLVGDTPFYADSLVGTYSKIMNHKNSLTFPDDNDISKEAKNLICAFLTDREVRLGRNGVEEIKRHLFFKNDQWAWETLRDTVAPVVPDLSSDIDTSNFDDLEEDKGEEETFPIPKAFVGNQLPFVGFTYYSNRRYLSSANPNDNRTSSNADKSLQESLQKTIYKLEEQLHNEMQLKDEMEQKCRTSNIKLDKIMKELDEEGNQRRNLESTVSQIEKEKMLLQHRINEYQRKAEQENEKRRNVENEVSTLKDQLEDLKKVSQNSQLANEKLSQLQKQLEEANDLLRTESDTAVRLRKSHTEMSKSISQLESLNRELQERNRILENSKSQTDKDYYQLQAILEAERRDRGHDSEMIGDLQARITSLQEEVKHLKHNLEKVEGERKEAQDMLNHSEKEKNNLEIDLNYKLKSLQQRLEQEVNEHKVTKARLTDKHQSIEEAKSVAMCEMEKKLKEEREAREKAENRVVQIEKQCSMLDVDLKQSQQKLEHLTGNKERMEDEVKNLTLQLEQESNKRLLLQNELKTQAFEADNLKGLEKQMKQEINTLLEAKRLLEFELAQLTKQYRGNEGQMRELQDQLEAEQYFSTLYKTQVKELKEEIEEKNRENLKKIQELQNEKETLATQLDLAETKAESEQLARGLLEEQYFELTQESKKAASRNRQEITDKDHTVSRLEEANSMLTKDIEILRRENEELTEKMKKAEEEYKLEKEEEISNLKAAFEKNINTERTLKTQAVNKLAEIMNRKDFKIDRKKANTQDLRKKEKENRKLQLELNQEREKFNQMVVKHQKELNDMQAQLVEECAHRNELQMQLASKESDIEQLRAKLLDLSDSTSVASFPSADETDGNLPESRIEGWLSVPNRGNIKRYGWKKQYVVVSSKKILFYNDEQDKEQSNPSMVLDIDKLFHVRPVTQGDVYRAETEEIPKIFQILYANEGECRKDVEMEPVQQAEKTNFQNHKGHEFIPTLYHFPANCDACAKPLWHVFKPPPALECRRCHVKCHRDHLDKKEDLICPCKVSYDVTSARDMLLLACSQDEQKKWVTHLVKKIPKNPPSGFVRASPRTLSTRSTANQSFRKVVKNTSGKTS
B1 was tested, and the binding was “no binding”.
